Experimental data: PubChem BioAssay AID686943 (Drosophila RNAi Screening Center, 2013)
In all, the deposit lists about 23,000 reagents; shown is a random part of those that have a named target and a result. 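Extra replicates exist only for a retested subset of genes; insulin dose and duration not given; both raised and lowered dpERK matter.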 Not all columns of the deposit are shown. Not given: the amount of reagent, the time to read-out.

- Purpose: 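Knockdowns that increase or decrease active ERK after insulin receptor stimulation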 (primary screen)
- System: Drosophila S2R+ haemocyte-like cells expressing YFP-tagged ERK (Rolled)
- Reagent: long dsRNA against Drosophila genes
- Treatment: insulin stimulation versus unstimulated cells; dose and duration not given
- Read-out: 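Per-plate z-scores of phospho-ERK immunostaining normalised to YFP-tagged ERK, measured with and without insulin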
- Direction: replicate 1, z-score of dpERK with insulin: higher = more active ERK per ERK-YFP after insulin

CkIalpha (Casein kinase Ialpha) [DRSC20231]: replicate 1, z-score of dpERK with insulin = -1
CkIalpha (Casein kinase Ialpha) [DRSC22609]: replicate 1, z-score of dpERK with insulin = -0.22
piwi (P-element induced wimpy testis) [DRSC03592]: replicate 1, z-score of dpERK with insulin = -0.31
Atg3 (Autophagy-related 3) [DRSC10736]: replicate 1, z-score of dpERK with insulin = 0.84
Atg3 (Autophagy-related 3) [DRSC21758]: replicate 1, z-score of dpERK with insulin = 0.34
CG15278 [DRSC02481]: replicate 1, z-score of dpERK with insulin = -0.59
shd (shade) [DRSC11129]: replicate 1, z-score of dpERK with insulin = -0.77
CG32459 [DRSC11852]: replicate 1, z-score of dpERK with insulin = -0.08
CG31798 [DRSC01702]: replicate 1, z-score of dpERK with insulin = 0.48
Inx3 (Innexin 3) [DRSC14857]: replicate 1, z-score of dpERK with insulin = 1.72
CG5815 [DRSC14135]: replicate 1, z-score of dpERK with insulin = 1.11
Snmp1 (Sensory neuron membrane protein 1) [DRSC16168]: replicate 1, z-score of dpERK with insulin = -0.56
CG31778 [DRSC00283]: replicate 1, z-score of dpERK with insulin = -0.38
CG2182 [DRSC12308]: replicate 1, z-score of dpERK with insulin = -0.11
mAChR-B (muscarinic Acetylcholine Receptor, B-type) [DRSC16345]: replicate 1, z-score of dpERK with insulin = -2.4
kuk (kugelkern) [DRSC15730]: replicate 1, z-score of dpERK with insulin = -0.63
CG11905 [DRSC09863]: replicate 1, z-score of dpERK with insulin = -0.34
mthl3 (methuselah-like 3) [DRSC06997]: replicate 1, z-score of dpERK with insulin = -0.5
CG18324 [DRSC06721]: replicate 1, z-score of dpERK with insulin = -0.03
Ir94c (Ionotropic receptor 94c) [DRSC13539]: replicate 1, z-score of dpERK with insulin = -0.38
bb8 (big bubble 8) [DRSC15578]: replicate 1, z-score of dpERK with insulin = 0.36

Not a retest: 2 of the entries above.
CG15278 [DRSC02481]: replicate 1, z-score of dpERK with insulin = -0.59
shd (shade) [DRSC11129]: replicate 1, z-score of dpERK with insulin = -0.77
